## Assay results

The results are deposited in PubChem (AID1963591; Tox21, 2024).

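CRE-bla HEK293T reporter cells under cAMP stimulation; the beta-lactamase FRET ratio is measured about 3 hours after compound addition.
Each compound was run as a concentration series, mostly reaching a top of 92.4 µM.
Fitted potency from the dose curve; a lower value means a more potent compound.
Calls come from the whole dose curve: active means a well-fitted inhibition curve with enough effect in repeat runs, inconclusive means weak, mixed or opposite-direction curves, and inactive means a flat curve.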

Values are in µM.
Every entry below has the call inconclusive.
These entries are mostly ones the record files as inconclusive; other results of the assay are not listed here.
A potency from a partial, single-point or poor curve is only a rough figure.
Some entries filed as inconclusive have a full curve.
The first word of each remark tells which way the curve ran; it can be opposite to the aim of the assay.
An entry listed twice with the same setting is a separate test.

Compound | fitted potency (µM) | curve
CC1(C)O[C@@H]2C[C@H]3[C@@H]4C[C@H](F)C5=CC(=O)C=C[C@]5(C)[C@@]4(F)[C@@H](O)C[C@]3(C)[C@]2(C(=O)CO)O1 | 26.6 | fluorescent, partial curve
O=c1cc(-c2ccc(O)cc2)oc2cc(O)cc(O)c12 | 63.9 | single point
CCCCCCCCCc1ccc(OCCOCCO)cc1 | 22.84 | fluorescent, partial curve
CCC[CH2][Sn]([Cl])([CH2]CCC)[CH2]CCC | 3.07 | full curve
CS(=O)(=O)c1ccc(C(=O)C2C(=O)CCCC2=O)c(Cl)c1COCC(F)(F)F | 68.52 | fluorescent
BrC1CCC(Br)C(Br)CCC(Br)C(Br)CCC1Br (stereo not drawn) | 60.67 | fluorescent, partial curve, poor fit
CCCCCC(=O)O[C@]1(C(C)=O)CC[C@H]2[C@@H]3CCC4=CC(=O)CC[C@]4(C)[C@H]3CC[C@@]21C | 14.96 | fluorescent, partial curve
CCCCN(CCN(CCCC)C(=O)N1CCOCC1)C(=O)N1CCOCC1 | 11.88 | fluorescent, partial curve
Nc1ccc(O)c([N+](=O)[O-])c1 | 54.11 | activator
CCCCCCCCCCCC[N+](C)(C)C | 61.13 | fluorescent, single point
CO[C@@H]1[C@@H](OC)[C@H](C)[C@@](O)(CC(=O)O)O[C@H]1[C@H](C)[C@H]1O[C@@]2(CC[C@@](C)([C@H]3CC[C@@](C)([C@@H]4O[C@@H]([C@H]5O[C@](C)(O)[C@H](C)C[C@@H]5C)C[C@@H]4OC4C[C@H](OC)[C@@H](OC)[C@H](C)O4)O3)O2)C[C@H](O)[C@H]1C (stereo partly drawn) | 6.682 | inhibitor, full curve
Cc1ccc(C(=O)c2cc(O)c(O)c([N+](=O)[O-])c2)cc1 | 30.64 | fluorescent, partial curve
O=C1c2ccccc2C(=O)N1CCc1noc(-c2ccc(CN3CCCCCC3)s2)n1 | 46.53 | fluorescent, partial curve, poor fit
CC(C)C1CCC(Cc2ccc(Cl)cc2)C1(O)Cn1cncn1 (stereo not drawn) | 63.29 | single point
CCCCC(CC)COC(=O)c1ccccc1C(=O)OCC(CC)CCCC (stereo not drawn) | 18.25 | inhibitor
CCCCCCCCCCCCN(CCO)CCO | 48.36 | rising, partial curve
Cc1cc2c(C(C)C)c(O)c(O)c(C=O)c2c(O)c1-c1c(C)cc2c(C(C)C)c(O)c(O)c(C=O)c2c1O | 26.6 | partial curve
C[C@]12CCC(=O)C=C1CC[C@@H]1[C@@H]2CC[C@@]2(C)[C@H]1CC[C@]2(O)C(=O)CO | 33.49 | fluorescent, partial curve, poor fit
O=[N+]([O-])c1cccc2c([N+](=O)[O-])cccc12 | 61.44 | rising, partial curve, poor fit
CC(C)c1c(CN(C)C(C)Cc2ccccc2)n(C)n(-c2ccccc2)c1=O (stereo not drawn) | 14.96 | fluorescent, partial curve, poor fit
Nc1ccc(N)c(Cl)c1 | 56.95 | fluorescent, partial curve, poor fit
COc1cc(C=C2CCC/C(=C\c3ccc(O)c(OC)c3)C2=O)ccc1O | 29.85 | -
c1ccc2[nH]ccc2c1 | 53.6 | partial curve
Nc1cccc2c(N)cccc12 | 43.28 | activator
Clc1ccc(C(Cn2ccnc2)OCc2ccsc2Cl)c(Cl)c1 (stereo not drawn) | 29.85 | inhibitor
COc1cc2ncnc(Nc3ccc(F)c(Cl)c3)c2cc1OCCCN1CCOCC1 | 33.49 | fluorescent, single point
Cc1ccc(-c2cc(C(F)(F)F)nn2-c2ccc(S(N)(=O)=O)cc2)cc1 | 46.54 | fluorescent
O=c1[nH]cc(F)c(=O)[nH]1 | 31.79 | rising, partial curve
ON=C1CCCCC1 | 63.9 | single point
Nc1ccc2cc3ccccc3cc2c1 | 31.17 | fluorescent, partial curve
C[C@]12CC[C@H](O)C[C@H]1CC[C@@H]1[C@@H]2C[C@@H](O)[C@]2(C)[C@@H](C3=CC(=O)OC3)CC[C@]12O | 1.536 | fluorescent, full curve
COc1cc(-c2nc(NC(=O)c3cc4cc(C)cc(C)c4n3CC(=O)O)sc2CCC2CCCCC2)c(OC)cc1Cl | 22.3 | -
C#Cc1cccc(Nc2ncnc3cc(OCCOC)c(OCCOC)cc23)c1 | 13.33 | fluorescent, partial curve
O=C1Cc2cc(CCN3CCN(c4nsc5ccccc45)CC3)c(Cl)cc2N1 | 29.85 | rising, partial curve, poor fit
Cc1cc(O)ccc1O | 19.55 | activator, full curve, poor fit
COc1cc2c(cc1OC)[C@@H]1CC(=O)[C@@H](CC(C)C)CN1CC2 | 23.71 | activator, partial curve, poor fit
CCCCCCC(C)OC(=O)COc1nc(F)c(Cl)c(N)c1Cl (stereo not drawn) | 43.28 | partial curve
Oc1ccc(Cl)cc1Sc1cc(Cl)ccc1O | 33.49 | -
CC1(C)S[C@@H]2[C@H](NC(=O)C(c3ccccc3)S(=O)(=O)O)C(=O)N2[C@H]1C(=O)O (stereo partly drawn) | 33.49 | activator, single point
CCN(C(=O)N(CC)c1ccccc1)c1ccccc1 | 68.59 | -
CC(C)C[C@H](NC(=O)[C@H](CCc1ccccc1)NC(=O)CN1CCOCC1)C(=O)N[C@@H](Cc1ccccc1)C(=O)N[C@@H](CC(C)C)C(=O)[C@@]1(C)CO1 | 26.6 | rising, partial curve, poor fit
O=S(=O)(O)c1ccc(O)c2ncccc12 | 42.84 | rising, partial curve, poor fit
CCOC(=O)Nc1ccc(NCc2ccc(F)cc2)nc1N | 29.85 | activator, partial curve, poor fit
CC1(C)O[C@@H]2C[C@H]3[C@@H]4C[C@H](F)C5=CC(=O)C=C[C@]5(C)[C@@]4(F)[C@@H](O)C[C@]3(C)[C@]2(C(=O)CO)O1 | 30.64 | fluorescent, partial curve
O=Cc1ccc(Cl)c([N+](=O)[O-])c1 | 30.64 | fluorescent, full curve
CCCCCCOC(=O)NC(=N)c1ccc(NCc2nc3cc(C(=O)N(CCC(=O)OCC)c4ccccn4)ccc3n2C)cc1 | 29.85 | fluorescent, partial curve
CN(C)CCC=C1c2ccccc2CCc2ccccc21 | 25.44 | activator, full curve
CC1(C)O[C@@H]2C[C@H]3[C@@H]4CCC5=CC(=O)C=C[C@]5(C)[C@H]4[C@@H](O)C[C@]3(C)[C@]2(C(=O)CO)O1 | 29.85 | activator, partial curve, poor fit
C#C[C@]1(O)CC[C@H]2[C@@H]3CCC4=CC(=O)CCC4=C3C=C[C@@]21CC | 9.439 | fluorescent, full curve
Cc1cc(Cl)ccc1OCCCC(=O)O | 50.35 | activator, partial curve, poor fit
O=C(OCC1(COC(=O)c2cccnc2)CCCC(COC(=O)c2cccnc2)(COC(=O)c2cccnc2)C1O)c1cccnc1 | 13.33 | fluorescent, partial curve
CCO[C@H]1O[C@@H]2OC3(C)CC[C@H]4[C@H](C)CC[C@@H]([C@H]1C)[C@@]24OO3 | 33.49 | -

For reference, 4 entries once more:

Compound,fitted potency (µM),curve
COc1cc2c(cc1OC)[C@@H]1CC(=O)[C@@H](CC(C)C)CN1CC2,23.71,"activator, partial curve, poor fit"
Nc1cccc2c(N)cccc12,43.28,activator
Cc1ccc(C(=O)c2cc(O)c(O)c([N+](=O)[O-])c2)cc1,30.64,"fluorescent, partial curve"
CCN(C(=O)N(CC)c1ccccc1)c1ccccc1,68.59,-